Several values for one entry are separate records, joined by “and”; a condition that tells them apart may be missing. Identical values can stand only once. This continues a long series; more values of the same kind are listed elsewhere.
System: anesthetized PAH minipigs
Assay: PAH minipig, intratracheal application of dry powder formulations and of different hydrates (PAP, BP)
Format: in vivo, Göttingen Minipigs
Conditions: 375 μg/kg i.t.; for PAP(mean) / BP (mean): per animal; for BP / PAP: % vs. prevalues, each animal
Protocol: Healthy Göttingen Minipigs® Ellegaard (Ellegaard, Denmark) of both sexes and having a weight of 2-6 kg were used. The animals were sedated by i.m. administration of about 25 mg/kg ketamine and about 10 mg/kg azaperone. Anaesthesia was initiated by i.v. administration of about 2 mg/kg ketamine and about 0.3 mg/kg midazolam. Maintenance of anaesthesia was by i.v. administration of about 7.5-30 mg/kg/h ketamine and about 1-4 mg/kg/h midazolam (rate of infusion 1-4 ml/kg/h) and about 150 μg/kg/h pancuronium bromide (for example Pancuronium-Actavis). After intubation, the animals were ventilated by the ventilator at a constant respiratory volume (10-12 ml/kg, 35 breaths/min; Avea®, Viasys Healthcare, USA, or Engström Carestation, GE Healthcare, Freiburg, Germany) such that an end-tidal CO2 concentration of about 5% was achieved. Ventilation was performed with room air, enriched with about 40% oxygen (normoxia). For the measurement of the haemodynamic parameters such as pulmonary arterial pressure (PAP), blood pressure (BP) and heart rate (HR), catheters were inserted into the carotid artery to measure the blood pressure, and a Swan-Ganz® catheter was introduced in a flow-directed manner via the jugular vein into the pulmonary artery. The haemodynamic signals were recorded and evaluated by means of pressure transducers (Combitransducer, B. Braun, Melsungen, Germany)/amplifiers and Ponemah® as data acquisition software.
About 0.3-0.75 μg/kg/min of 9,11-didesoxy-9α,11α-epoxymethanoprostaglandine F2α (U-44069; Sigma, cat. no. D0400, or Cayman Chemical Company, cat. no. 16440), dissolved in physiological saline, were infused to achieve an increase of the mean pulmonary arterial pressure to values of over 25 mmHg.
After characterization of the effects of comparative example 11 after nebulization of compound solutions, in a further step the effects of crystalline forms of comparative example 11, e.g. sesquihydrate, e.g. example 6e on PAP and BP after inhaled application of different dry powder lactose formulations (table 52) were studied in anesthetized PAH minipigs.
As reference pure Lactose vehicle was applied in the beginning of each experiment.

For O.O.O.O=C(O)c1ccc(CCN(CCc2ccccc2OCc2ccc(-c3ccc(C(F)(F)F)cc3)cc2Cl)[C@H]2CCCc3nc(C(=O)O)ccc32)cc1.O=C(O)c1ccc(CCN(CCc2ccccc2OCc2ccc(-c3ccc(C(F)(F)F)cc3)cc2Cl)[C@H]2CCCc3nc(C(=O)O)ccc32)cc1 [Example 6e, (5S)—{[2-(4-Carboxyphenyl)ethyl][2-(2-{[3-chloro-4′-(trifluoromethyl)biphenyl-4-yl]methoxy}phenyl)-ethyl]amino}-5,6,7,8-tetrahydroquinoline-2-carboxylic Acid Sesquihydrate], the “PAP(mean)” value (time 250, Sesquihydrate) was 23.9 mmHg and 29.8 mmHg and 22.8 mmHg, the “BP (mean)” value (time 260, Sesquihydrate) was 97 mmHg and 110 mmHg and 107 mmHg and the “PAP(mean)” value (time 260, Sesquihydrate) was 23.5 mmHg and 30.3 mmHg and 22.0 mmHg. For the same molecule, the “BP (mean)” value (time 270) was 98 mmHg, the “BP (mean)” value (time 270, Sesquihydrate) was 109 mmHg and 108 mmHg and the “PAP(mean)” value (time 270, Sesquihydrate) was 24.6 mmHg and 30.0 mmHg and 22.2 mmHg. For the same molecule, the “BP (mean)” value (time 280) was 97 mmHg, the “BP (mean)” value (time 280, Sesquihydrate) was 109 mmHg and 105 mmHg and the “PAP(mean)” value (time 280, Sesquihydrate) was 23.9 mmHg and 29.6 mmHg and 21.9 mmHg. The “BP (mean)” value (time 290) was 94 mmHg, the “BP (mean)” value (time 290, Sesquihydrate) was 108 mmHg and 105 mmHg and the “PAP(mean)” value (time 290, Sesquihydrate) was 25.3 mmHg and 29.1 mmHg and 22.5 mmHg. The “BP (mean)” value (time 300) was 97 mmHg, the “BP (mean)” value (time 300, Sesquihydrate) was 108 mmHg and 105 mmHg and the “PAP(mean)” value (time 300, Sesquihydrate) was 25.1 mmHg and 28.5 mmHg and 21.6 mmHg. The BP (time 50, Sesquihydrate) was 101.4% and 98.5% and 100.3%, the PAP (time 50, Sesquihydrate) was 98.3% and 96.2% and 101.2% and the BP (time 60, Sesquihydrate) was 102.5% and 100.3% and 99.4%. For the same molecule, the PAP (time 60, Sesquihydrate) was 97.2% and 99.6% and 101.1%, the BP (time 70, Sesquihydrate) was 99.4% and 96.0% and 98.6% and the PAP (time 70, Sesquihydrate) was 97.8% and 97.5% and 98.5%. The BP (time 80, Sesquihydrate) was 101.4% and 96.8% and 97.7%, the PAP (time 80, Sesquihydrate) was 87.8% and 94.9% and 87.9% and the BP (time 90, Sesquihydrate) was 101.4% and 98.5% and 96.9%. The PAP (time 90, Sesquihydrate) was 82.5% and 92.0% and 76.6%, the BP (time 100, Sesquihydrate) was 101.4% and 98.5% and 96.9% and the PAP (time 100, Sesquihydrate) was 77.6% and 90.1% and 71.1%. For the same molecule, the BP (time 110, Sesquihydrate) was 99.4% and 103.7% and 96.1%, the PAP (time 110, Sesquihydrate) was 74.0% and 88.3% and 68.4% and the BP (time 120, Sesquihydrate) was 99.4% and 104.6% and 96.1%. The PAP (time 120, Sesquihydrate) was 72.8% and 73.1% and 66.2%, the BP (time 130, Sesquihydrate) was 100.4% and 105.5% and 96.1% and the PAP (time 130, Sesquihydrate) was 69.8% and 76.4% and 66.8%. For the same molecule, the BP (time 140, Sesquihydrate) was 101.4% and 104.6% and 96.9%, the PAP (time 140, Sesquihydrate) was 67.3% and 71.4% and 62.2% and the BP (time 150, Sesquihydrate) was 99.4% and 102.9% and 96.9%. The PAP (time 150, Sesquihydrate) was 62.1% and 77.7% and 62.8%, the BP (time 160, Sesquihydrate) was 99.4% and 106.3% and 96.1% and the PAP (time 160, Sesquihydrate) was 60.4% and 77.7% and 59.3%. The BP (time 170, Sesquihydrate) was 98.4% and 100.3% and 95.2%, the PAP (time 170, Sesquihydrate) was 61.3% and 77.3% and 61.0% and the BP (time 180, Sesquihydrate) was 99.4% and 101.1% and 97.7%. The PAP (time 180, Sesquihydrate) was 60.0% and 77.6% and 60.1%, the BP (time 190, Sesquihydrate) was 97.4% and 106.3% and 96.1% and the PAP (time 190, Sesquihydrate) was 58.5% (2×) and 83.0%. The BP (time 200, Sesquihydrate) was 97.4% and 102.9% and 96.1%, the PAP (time 200, Sesquihydrate) was 57.6% and 79.4% and 58.5% and the BP (time 210, Sesquihydrate) was 97.4% and 102.9% and 94.4%. The PAP (time 210, Sesquihydrate) was 58.3% (2×) and 78.3%, the BP (time 220, Sesquihydrate) was 97.4% and 102.0% and 93.5% and the PAP (time 220, Sesquihydrate) was 58.3% and 79.0% and 56.8%. For the same molecule, the BP (time 230, Sesquihydrate) was 96.4% and 100.3% and 94.4%, the PAP (time 230, Sesquihydrate) was 57.8% and 79.6% and 58.3% and the BP (time 240, Sesquihydrate) was 99.4% (2×) and 91.8%. The PAP (time 240, Sesquihydrate) was 58.9% and 75.3% and 56.1%, the BP (time 250, Sesquihydrate) was 97.4% and 96.0% and 92.7% and the PAP (time 250, Sesquihydrate) was 57.4% and 75.3% and 56.6%. For the same molecule, the BP (time 260, Sesquihydrate) was 97.4% and 95.1% and 90.2%, the PAP (time 260, Sesquihydrate) was 56.4% and 76.5% and 54.6% and the BP (time 270, Sesquihydrate) was 98.4% and 94.2% and 91.0%. For the same molecule, the PAP (time 270, Sesquihydrate) was 59.1% and 75.7% and 55.2%, the BP (time 280, Sesquihydrate) was 97.4% and 94.2% and 88.5% and the PAP (time 280, Sesquihydrate) was 57.4% and 74.6% and 54.4%. For the same molecule, the BP (time 290, Sesquihydrate) was 94.4% and 93.4% and 85.9%, the PAP (time 290, Sesquihydrate) was 60.8% and 73.3% and 55.8% and the BP (time 300, Sesquihydrate) was 101.4% and 90.8% and 84.3%. For the same molecule, the PAP (time 300, Sesquihydrate) was 60.3% and 72.0% and 53.7%.

— patent US20250281480A1, “PHARMACEUTICAL DRY POWDER INHALATION FORMULATION” (Bayer Aktiengesellschaft, priority 2021, published 2025)
